Reference: patent US20020045590A1
No constants are given. Whether binding was seen depends on the method and setting. Some entries that bind do so weakly or less than the wild type.

By UniProt entry, the sequences of proteins in these tests, tags left out. Where a name states a change or a piece, a line headed by the entry shows the natural chain unless it says otherwise. Residues count along the entry.
UniProt P04386: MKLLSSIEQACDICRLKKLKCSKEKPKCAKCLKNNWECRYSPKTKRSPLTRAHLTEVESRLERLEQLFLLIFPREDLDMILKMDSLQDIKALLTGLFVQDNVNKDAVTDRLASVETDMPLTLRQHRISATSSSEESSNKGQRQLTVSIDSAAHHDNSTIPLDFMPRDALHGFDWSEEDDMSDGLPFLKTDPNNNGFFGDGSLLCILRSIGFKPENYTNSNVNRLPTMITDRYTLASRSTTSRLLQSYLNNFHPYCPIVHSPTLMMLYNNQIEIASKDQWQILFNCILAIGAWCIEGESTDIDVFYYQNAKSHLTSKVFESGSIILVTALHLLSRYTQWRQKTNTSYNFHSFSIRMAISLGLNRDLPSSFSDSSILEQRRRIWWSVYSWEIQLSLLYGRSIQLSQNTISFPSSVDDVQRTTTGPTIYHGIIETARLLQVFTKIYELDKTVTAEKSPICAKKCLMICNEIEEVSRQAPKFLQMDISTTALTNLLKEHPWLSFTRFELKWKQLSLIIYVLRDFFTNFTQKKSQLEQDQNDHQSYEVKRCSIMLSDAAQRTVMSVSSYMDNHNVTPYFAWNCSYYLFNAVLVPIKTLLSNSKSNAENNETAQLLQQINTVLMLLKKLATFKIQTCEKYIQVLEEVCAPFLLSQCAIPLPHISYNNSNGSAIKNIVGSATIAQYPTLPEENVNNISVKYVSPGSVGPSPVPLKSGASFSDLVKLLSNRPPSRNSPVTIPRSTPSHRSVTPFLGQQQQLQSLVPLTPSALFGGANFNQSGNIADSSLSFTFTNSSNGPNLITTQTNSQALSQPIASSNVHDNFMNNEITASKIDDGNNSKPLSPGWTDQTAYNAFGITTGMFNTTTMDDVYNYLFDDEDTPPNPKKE
UniProt Q63622, residues 193-279: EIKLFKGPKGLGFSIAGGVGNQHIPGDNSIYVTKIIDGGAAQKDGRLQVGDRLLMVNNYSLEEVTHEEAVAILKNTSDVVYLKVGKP

How the values were obtained:
[1] = biological target: PDZ domain of nNOS fused in frame with the GAL4 DNA-binding domain (pGBT9-nNOS) (UniProt P04386); assay: yeast two-hybrid
[2] = biological target: PDZ domain of nNOS fused in frame with the GAL4 DNA-binding domain (pGBT9-nNOS) (UniProt P04386); assay: yeast two-hybrid, growth on -LTH medium

## PDZ domain of PSD-93 fused in frame with the GAL4 activation domain (pGAD424-PSD-93) (from UniProt Q63622 193-279)
[1]
  binding: binds
[2]
  binding: binds
